In the data set the test system is P. falciparum Dd2. The experiment in a line: In vitro antiplasmodial activity, 3H-hypoxanthine incorporation, strain Dd2. The conditions noted are these: RI = IC50 Dd2/IC50 3D7. In kind it is cell-based, Plasmodium falciparum.

As to `CCN(CC)Cc1cc(Nc2ccnc3cc(Cl)ccc23)ccc1O` [AQ, amodiaquine, reference compound], the “Resistance Index Dd2/3D7” value (laboratory B) was 0.9.

With `CCN(CC)Cc1ccccc1CNc1ccnc2cc(Cl)ccc12` [Compound 1, 7-Chloro-N-(2-((diethylamino)methyl)benzyl)quinolin-4-amine], the “Resistance Index Dd2/3D7” value is on record as 1.6 (laboratory A) and 0.9 (laboratory B).

For `CCN(CC)Cc1cccc(CNc2ccnc3cc(Cl)ccc23)c1` [Compound 2, 7-Chloro-N-(3-((diethylamino)methyl)benzyl)quinolin-4-amine], the “Resistance Index Dd2/3D7” value is, setting by setting: (laboratory A) 1.4; (laboratory B) 1.0.

For `CCN(CC)Cc1ccc(CNc2ccnc3cc(Cl)ccc23)cc1` [Compound 3, 7-Chloro-N-(4-((diethylamino)methyl)benzyl)quinolin-4-amine], the “Resistance Index Dd2/3D7” value reads like this: (laboratory A) 1.8; (laboratory B) 1.1.

Turning to `CCN(CC)Cc1ccc(-c2ccc(CNc3ccnc4cc(Cl)ccc34)cc2)cc1` [Compound 4, 7-Chloro-N-((4’-((diethylamino)methyl)-[1,1’-biphenyl]-4-yl)methyl)quinolin-4-amine], the “Resistance Index Dd2/3D7” value was 1.4 (laboratory A) and 1.1 (laboratory B).
